The values that follow come from patent publication US20250026849A1 (ARCELLX, published 2025).

By UniProt entry, the sequences of proteins in these tests, tags left out. Residues count along the entry.
UniProt Q02223, residues 1-54: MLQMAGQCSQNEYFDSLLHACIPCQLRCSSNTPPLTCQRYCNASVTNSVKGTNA

Assay [1] concerns the target biotinylated BCMA (UniProt Q02223). Description: flow cytometry: af03 CAR Jurkat cells loaded with Adapters, then biotinylated BCMA, detected with Streptavidin-PE. Background: A flow cytometer gives signals particle by particle.
For assay [2] the target is unchanged. Nature of the assay: flow cytometry: af03 CAR Jurkat cells loaded with Adapters, then biotinylated BCMA, detected with Streptavidin-PE (FIGS. 8A, 8B).

Results are given in words; binding and its absence hold for the method and conditions named. Some results given as binding are weak or reduced against the parent protein; the word gives no strength.

B1: bc40-p26 Adapter (SEQ ID NO: 1085) (designed binder)
chain: DEHHHHHHHHHHKLENLYFQGGGGGSMGSWSEFWVRLGAIRERLDALGGSEAELAAFEKEIAAFESELQAYKGKGNPEVEKLRYTAATIRRFLQAYRHNGGGGSGGGGSGGGGSLEKCFQTENPLECQDKGEEELQKYIQESQALAKRSCGLFQKLGEYYLQNAFLVAYTKKAPQLTSSELMAITRKMAATAATCCQLSEDKLLACGEGAADIIIGHLCIRHEMTPVNPGVGQCCTSSYANRRPCFSSLVVDETYVPPAFSDDKFIFHKDLCQAQGVALQTMKQEFLINLVKQKPQITEEQLEAVIADFSGLLEKCCQGQEQEVCFAEEGQKLISKTRAALGV
On to B1, for which the binding entry with biotinylated BCMA [1] and with biotinylated BCMA [2] was “binds” in each case.
